Results on one substance are retold here after US20250297262A1.

Protein sequences, listed by entry. Tags and fused reporters are not part of them. Residues count along the entry.
UniProt P01574, residues 22-187: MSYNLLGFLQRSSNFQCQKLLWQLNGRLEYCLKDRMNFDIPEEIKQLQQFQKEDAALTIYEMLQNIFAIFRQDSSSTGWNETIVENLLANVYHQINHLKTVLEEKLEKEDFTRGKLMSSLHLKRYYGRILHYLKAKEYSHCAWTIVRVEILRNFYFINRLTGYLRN

These are yes or no findings as the source states them, for the method shown. Some results given as binding are weak or reduced against the parent protein; the word gives no strength.

The target of the assay is T1, IFNAR2-S (short isoform of Interferon Alpha And Beta Receptor Subunit 2) (human).
T1 sequence: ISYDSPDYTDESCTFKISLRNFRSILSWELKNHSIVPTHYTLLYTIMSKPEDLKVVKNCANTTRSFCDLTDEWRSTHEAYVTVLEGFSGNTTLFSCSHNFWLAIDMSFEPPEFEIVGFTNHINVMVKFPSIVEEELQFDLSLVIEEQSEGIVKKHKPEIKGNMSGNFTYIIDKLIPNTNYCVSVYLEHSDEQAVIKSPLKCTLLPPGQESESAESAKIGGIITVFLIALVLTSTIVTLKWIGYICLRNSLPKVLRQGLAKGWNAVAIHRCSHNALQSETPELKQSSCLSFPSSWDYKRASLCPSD
Briefly: ELISA of residual IFNb in culture media of wild-type and IFNAR2 isoform KO HeLa lines after 24 h and 48 h with 1 U/ml IFNb. On the technique in general: ELISA stands for enzyme-linked immunosorbent assay.

Consider “IFNb (type I interferon beta) (from UniProt P01574 22-187) (ligand)”, for which the binding result was “binds”.
